Assay [1] deals with T1, Rad5 with a C-terminal TAP tag (S. cerevisiae) (UniProt P32849).
T1 sequence: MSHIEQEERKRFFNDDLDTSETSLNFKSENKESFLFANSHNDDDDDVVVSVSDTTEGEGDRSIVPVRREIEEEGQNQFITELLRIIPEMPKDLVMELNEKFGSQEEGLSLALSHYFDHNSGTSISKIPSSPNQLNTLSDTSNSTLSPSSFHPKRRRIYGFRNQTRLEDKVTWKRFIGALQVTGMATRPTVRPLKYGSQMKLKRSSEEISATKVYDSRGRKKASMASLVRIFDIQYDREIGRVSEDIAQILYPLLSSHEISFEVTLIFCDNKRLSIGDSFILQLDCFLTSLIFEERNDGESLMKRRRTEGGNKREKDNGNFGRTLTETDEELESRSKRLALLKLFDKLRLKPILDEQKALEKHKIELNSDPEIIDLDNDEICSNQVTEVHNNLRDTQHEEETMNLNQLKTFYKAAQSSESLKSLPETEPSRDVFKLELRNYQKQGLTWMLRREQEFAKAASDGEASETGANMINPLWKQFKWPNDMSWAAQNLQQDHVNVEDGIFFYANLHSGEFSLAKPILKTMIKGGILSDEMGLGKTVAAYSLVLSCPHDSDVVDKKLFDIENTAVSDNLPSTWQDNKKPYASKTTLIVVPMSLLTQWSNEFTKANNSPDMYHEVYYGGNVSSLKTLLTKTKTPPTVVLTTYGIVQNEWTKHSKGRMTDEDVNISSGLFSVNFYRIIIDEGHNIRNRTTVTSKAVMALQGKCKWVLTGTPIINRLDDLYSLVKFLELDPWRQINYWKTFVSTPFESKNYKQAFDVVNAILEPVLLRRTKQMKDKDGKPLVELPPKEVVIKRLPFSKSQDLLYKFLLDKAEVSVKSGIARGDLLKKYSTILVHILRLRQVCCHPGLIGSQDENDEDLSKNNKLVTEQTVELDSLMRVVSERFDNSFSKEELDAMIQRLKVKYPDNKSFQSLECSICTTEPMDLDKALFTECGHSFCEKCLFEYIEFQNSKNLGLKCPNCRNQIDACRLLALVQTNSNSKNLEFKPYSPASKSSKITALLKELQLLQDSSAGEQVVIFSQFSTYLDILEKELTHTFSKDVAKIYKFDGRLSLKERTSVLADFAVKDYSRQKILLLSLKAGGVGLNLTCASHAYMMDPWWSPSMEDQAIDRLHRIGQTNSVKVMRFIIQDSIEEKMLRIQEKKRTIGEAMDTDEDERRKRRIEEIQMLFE
Put plainly: affinity purification with mass spectrometry; TAP of chromosomally TAP-tagged Rad5 from whole cell extract of untreated control cells (no MMS); IgG Sepharose (500 mM NaCl, 0.01% Nonidet P-40), TEV elution, calmodulin beads, EGTA elution; Coomassie gel, bands identified by MALDI-TOF.

The target in assay [2] is T1, Rad5 with a C-terminal TAP tag (S. cerevisiae). Put plainly: affinity purification with mass spectrometry; TAP of chromosomally TAP-tagged Rad5 from whole cell extract of cells treated with 0.02% MMS for 2 h; IgG Sepharose (500 mM NaCl, 0.01% Nonidet P-40), TEV elution, calmodulin beads, EGTA elution; Coomassie gel, bands identified by MALDI-TOF.

These are yes or no findings as the source states them, for the method shown. Binding seen in cells or lysates may run through a third protein. These calls come from enrichment with a bait or labelling near it, and not all partners need be listed. For some assays here: No binding means not detected with the bait. Tags and fused reporters may be left off the sequences shown.

B1: Def1 (protein, UniProt P35732 1-738)
chain: MSTQFRKSNHNSHSSKKLNPALKSKIDTLTELFPDWTSDDLIDIVQEYDDLETIIDKITSGAVTRWDEVKKPAKKEKYEKKEQQHSYVPQQHLPNPEDDITYKSSNNSNSFTSTKHNSSNNYTQARNKKKVQTPRAHTTGKHVNLDKGKHVPSKPVSNTTSWAAAVSVDTKHDVPQDSNDNNNEELEAQGQQAQEKNQEKEQEEQQQQEGHNNKEEHKQIEQPSLSSKKTTSRTSASQPKKMSWAAIATPKPKAVKKTESPLENVAELKKEISDIKKDDQKSEASEEKVNEQETSAQEQEEETAEPSEENEDRVPEVDGEEVQEEAEKKEQVKEEEQTAEELEQEQDNVAAPEEEVTVVEEKVEISAVISEPPEDQANTVPQPQQQSQQPQQPQQPQQPQQPQQPQQQQQPQQPQQPQQQLQQQQQQQQQPVQAQAQAQEEQLSQNYYTQQQQQQYAQQQHQLQQQYLSQQQQYAQQQQQHPQPQSQQPQSQQSPQSQKQGNNVAAQQYYMYQNQFPGYSYPGMFDSQGYAYGQQYQQLAQNNAQTSGNANQYNFQQGYGQAGANTAAANLTSAAAAAAASPATAHAQPQQQQPYGGSFMPYYAHFYQQSFPYGQPQYGVAGQYPYQLPKNNYNYYQTQNGQEQQSPNQGVAQHSEDSQQKQSQQQQQQQPQGQPQPEVQMQNGQPVNPQQQMQFQQYYQFQQQQQQAAAAAAAAAQQGVPYGYNGYDYNSKNSRGFY
On to B1, for which the binding entry is “no binding (only cells without MMS treatment)” in assay [1] and “binds” in assay [2].

The record behind these values is PMC3897375, “Def1 Promotes the Degradation of Pol3 for Polymerase Exchange to Occur During DNA-Damage–Induced Mutagenesis in Saccharomyces cerevisiae” (PLoS Biology, 2014).
